Experimental findings from PubChem BioAssay AID1347426 (Functional Genomics Laboratory (NCATS/FGL), 2020) are described below.

In all, about 31,000 sequences went through this assay and about 1,400 (4.5%) were called active.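 How the source made its calls: active means median seed-adjusted z-score above 1 or below -1; inactive means the rest.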 This is one part of the list.

This test is described as follows: Novel Modifiers of Survival Motor Neuron (SMN) Protein: Gene Identification via Genome-wide siRNA Screen.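 Further: luminescence tracks full-length SMN protein made from the SMN2 reporter.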 The following applies: HEK293T SMN2-luciferase reporter, siRNA knockdown, 72 h; actives lie on both sides. The method in brief: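 Steps: spot 1 pmol siRNA, add Lipofectamine RNAiMax in serum-free DMEM, seed HEK293T SMN2–luciferase reporter cells; incubate 72 h at 37 °C; add ONE-Glo; normalize luminescence to control siRNA, log10, MAD. Candidates: |MAD| > 1.0.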
As for GACUGGUUGUUGCUCAGAUTT against LPGAT1, the median seed-adjusted z-score was inactive: 0.625.
Turning to CAGUGGAUUCGAGAAGUGATT against ERBB3, the median seed-adjusted z-score is inactive: -0.561.
For GCCUACAUGUUCAACGAGATT against TRPC7, the median seed-adjusted z-score is inactive: 0.146.
The result for GUGUCCAACAGAUACGGAATT against DSCAM reads inactive: -0.527; that for GAACGAGUACAGCAAUAUATT against HNRPDL, inactive: -0.68; that for GGCUUUAAGGUGUACUUCATT against SCN4A, inactive: -0.681.
For the sequence UAAUCAAUCUGGAAUGUUUTT against BMP8B, the median seed-adjusted z-score is inactive: 0.
Take CAGCCCAAGUGUCGCCUUATT against PAX9: the median seed-adjusted z-score was active: -1.16.
Then GGCAUGAUCUACAAAUACATT against SLC12A4, with inactive: -0.0667; and CAUACAGCAUUGAACUUCATT against MANBA, with inactive: 0.473.
Then GCAAAAUCCUCGUUUCUGUTT against MRGPRX4, with inactive: -0.113; and ACCUCAAGAUCAUCACUGATT against SMARCD2, with inactive: 0.162; and GUGCCUUGAUGUAUCCCAATT against MMP8, with inactive: -0.781.
Regarding GCUCGUGUAUACUACCAAUTT against LPXN, the median seed-adjusted z-score is inactive: -0.065.
Turning to GGAUCUUCAGUGUGCGCAATT against GPR50, the median seed-adjusted z-score is inactive: -0.0348.
The result for GGAGAAAGCUAAUCAGCGATT against CUX2 reads inactive: 0; that for GGAAGAUUACCGAACGAGATT against PPP2R2C, inactive: -0.87; that for UGUUCAAACGCACUGUUUATT against DLX1, inactive: 0.0356.
GCAUAUUGCGAUCCUGGAATT against PRL: the median seed-adjusted z-score was inactive: 0.
The result for CACAGACGGUCAACAACAATT against NFYB reads inactive: -0.29; that for GAGUUCCUCUUGGAUCUAATT against CASQ2, inactive: 0.4.
Then GAGACAUUGUAGUGAAGAATT against CDY2A, with inactive: 0.75; and CCAAUUACCUGCUCAGAGATT against POU6F1, with inactive: 0.978.
Turning to CGACAUGAUCUCCUACUCATT against ABLIM2, the median seed-adjusted z-score is inactive: -0.26.
Then GCGACCACAUGAGCUCCUATT against P2RY6, with inactive: 0.00327.
The result for UCUUCAUGCUGUCCACCAATT against OXER1 reads inactive: -0.471; that for GGAUUAGUAGUGACCAUUATT against OLR1, inactive: 0; that for UGAAAGAACUGAUUGAGAATT against NDUFV1, inactive: -0.653.
The result for GGAACAAUCUGAUUCAACATT against MBNL3 reads inactive: -0.189.
Regarding GGAGGAGGUGUUUCGCUUUTT against CPOX, the median seed-adjusted z-score is inactive: -0.135.
As for GACCGGAUCUUAUCGGUGATT against DLG3, the median seed-adjusted z-score is inactive: -0.317.
The result for CGUUUGGUCUCACUCAUAATT against SNX14 reads inactive: 0; that for CCAUAGAAUUCAAAAUCCUTT against BCL2L14, inactive: -0.859.
Take GAACGAGUGUGAAACACUATT against LTBP4: the median seed-adjusted z-score was inactive: 0.19.
Then CGAGAAAGCCUAUCACGAATT against TUBA8, with inactive: -0.0453; and CACCAAAACGGGAGACAAATT against MMAB, with inactive: 0; and AGUCAGGGUCGGCUUGUGATT against HMGN2, with inactive: -0.038.
Then GCUUAGGCUUGAUUUCCGATT against SLC30A7, with inactive: 0.0492; and GAAGUUUCCAAGUUAGUGATT against ALB, with inactive: -0.153.
Then AGGAAGAUGCGGCCAAUAATT against TUBA3C, with inactive: -0.0806.
Regarding UGCUCUUCGUGUUCCGCUATT against DERL3, the median seed-adjusted z-score is inactive: 0.043.
The result for GACGAUUUGUAGUUACCUATT against DZIP3 reads inactive: 0.435; that for GGGCUAGUGUUUUACGUGATT against DYNC1LI2, inactive: -0.491; that for GACAAUAAUCUACUACAUATT against FBXO45, inactive: -0.043.
In the case of GAGUGAAUAAUGAGAAAAATT against HPGD, the median seed-adjusted z-score was inactive: -0.145.
The result for CAUCCAUUUCAGGCAAAUATT against NEK3 reads inactive: 0.118.
Then GGCUUCGUGUCAUUGCAAATT against APOL4, with inactive: -0.54; and GAGCUGCUAUGUUCUAUGATT against IL28RA, with inactive: 0; and GGACAACCAAAAGUCAGAATT against CYP2C8, with inactive: 0.371.
The result for AAUCCGUUGUGGAAUGAAATT against GTF3C5 reads inactive: 0.493.
With GGACGGGCCUGAAAGCAUUTT against PGPEP1, the median seed-adjusted z-score is inactive: -0.0356.
Then UCGUUUUUACAGAUGUUAATT against SAP18, with active: 2.14; and GGUUAAAAGUCGGUCCCAATT against SGCG, with inactive: 0.886.
Consider CACCUUCACUGAUACUUUUTT against TRIM39, for which the median seed-adjusted z-score is inactive: 0.41.
Regarding CUAACUUUGUAAUCGAGGATT against RASA2, the median seed-adjusted z-score was inactive: -0.913.
The result for AGAGAUUUCUAUGCCCUCATT against NRBP2 reads inactive: 0.093; that for GGAGUGCAACAACUGCUCUTT against SCN2B, inactive: -0.65; that for CUAUUGUAAAGGAUGCUAUTT against CSRP2, inactive: -0.829.
Then UCAAGUUCCUUAUCUCGGATT against CAND2, with inactive: 0.0936.
Consider GGACGAUUGAAGAAUCCAUTT against SMARCAD1, for which the median seed-adjusted z-score was inactive: -0.198.
Take AGUGGAGAGUGUGACCCAATT against PSMA5: the median seed-adjusted z-score was inactive: -0.824.
GCUGUGCAAUCUCAUCGGATT against REEP6: the median seed-adjusted z-score was inactive: -0.348.
Then GGAAUUCUCUCACGACCAATT against KIF3C, with inactive: 0.0126; and AGAUAUGAAACAUCGGCUATT against RGS4, with inactive: 0.
Consider GCAAUGGGUUUGAUAGGAATT against CLCA2, for which the median seed-adjusted z-score is inactive: 0.669.
The result for GGACUCUCAUGAGUGCUGATT against ACP2 reads inactive: -0.00569; that for GGACUAUGCUGAAGUAUCATT against POLR3C, inactive: -0.294; that for GGGCAUCGAUUAUGCUGAATT against GNAT2, inactive: 0.
Then ACAAGUUGGUACCAACAAATT against CCL18, with inactive: 0.169.
For the sequence CCAGGCAAAUAGUGAAGAATT against VAX1, the median seed-adjusted z-score was inactive: 0.937.
Then GAAGAUUGGUCUCCAGUAATT against FDFT1, with inactive: -0.143; and AGAAUAUCAACGAACUCAATT against PEX14, with inactive: 0.844.
The result for GCAUGUUCCAGAUCUAUCATT against DRD5 reads inactive: -0.18; that for GAAGAAGACUGCUUUAGUUTT against RG9MTD3, inactive: -0.174; that for GGAAUUGUUGGAUAAAUAUTT against YWHAQ, inactive: -0.412.
Then GGUCCUCAGCUACAAGGAATT against CAMP, with inactive: -0.622; and GGAUGAACUCAAUACUAUUTT against OXGR1, with inactive: -0.0388; and CCGCAGACCCGAAAGUGAATT against MARVELD3, with inactive: -0.021.
Consider AUAUGAAACAUACAAGGAATT against RBM8A, for which the median seed-adjusted z-score is inactive: 0.
As for “GGUCAUUAAUAAUCCUGAUTT against CSGALNACT2”, the median seed-adjusted z-score was inactive: 0.236.
As to GGAGUUUGGUGAUGCGGAATT against BRUNOL6, the median seed-adjusted z-score was inactive: -0.542.
The result for CGCUGGUGGCCGUGUAUUATT against STUB1 reads inactive: 0.202.
The result for GGAUAUGCCUUAGAUUACATT against PRTFDC1 reads inactive: 0.493.
Take GGCUCUUACUCACUCAAGATT against ANGPTL2: the median seed-adjusted z-score was inactive: 0.141.
Then GGAAGAUGAGCAAAAAGAATT against SYT12, with inactive: -0.329; and GCAUGACGACUGAACUGAUTT against MDH1B, with active: -1.13; and CGCUAUGAUCUGUACCACATT against TMEM147, with inactive: 0.233.
On to UGUCAUCCACAUCAAUGAATT against EPOR, for which the median seed-adjusted z-score was inactive: -0.084.
As to GACUCUCUACCAUGGAUUUTT against SLC25A42, the median seed-adjusted z-score is active: -1.02.
The result for CCAUCAUCCUUUUAGCGAUTT against FZD3 reads inactive: -0.0208; that for GCAAGUUACGGGACCGAAUTT against 12-Sep, inactive: 0.286.
The result for CACUGAAUUUGCUAAAAAUTT against SIK1 reads inactive: 0.887; that for GGAAGAAAGUGAAGCUUGATT against DNAJC17, inactive: 0.751; that for CCAACGAAGUGGUUACCUUTT against PFTK1, inactive: 0.088.
The result for AGCUGAAGCUCGACCACUATT against FKBP8 reads inactive: -0.304; that for AGAACUUCAUGGACAUAGATT against CNR1, inactive: 0.0359; that for GCCUUUCGGUUCCUGACCATT against CDC34, inactive: 0.
As for CCCUAACAGUGUCUAAUGATT against CAPZA2, the median seed-adjusted z-score was inactive: 0.
The result for GGACAUGAAUGGAAAACCATT against SORCS2 reads inactive: 0.648; that for CCAACACCAAUCUAGCUAATT against MYH2, inactive: -0.73.
Then GGACUUGGUUACUUAUAUATT against ATP6V1C1, with inactive: 0.0821; and GAAUCGAGAUCGGAUGUCATT against HTT, with inactive: -0.234.
The result for CAUCGAAGAAGUUACUGCATT against TDRD1 reads inactive: -0.164; that for GCGAUGACGUGAUCUGUGATT against COL1A1, inactive: 0.
On to GCAACUUUGAUAUUCCAAATT against CLIC4, for which the median seed-adjusted z-score was inactive: -0.498.
Then AAAUUCAUGUAUCCACUUATT against SCARA5, with inactive: -0.278.
The result for UUCACUUAAUGAUACCGAATT against VAPA reads inactive: -0.623.
The result for CCCUGACAGGUCUCAAGUUTT against FSD1 reads inactive: 0.685.
